Laboratory results: PubChem BioAssay AID1224831 (NIAID, 2016)
Shown is one part, drawn at random, of about 3,500 reagents tested. 731 of them (21%) were called active. 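Active means either lowered or raised reporter signal; the gene-median score did not drive the per-siRNA calls.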 Entries without a mark were called inactive. The numbers tell different reagents against one gene apart. No sequences are given here.

Purpose: 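Confirming genome-wide hits on LPS-triggered TNF-alpha induction with independent siRNA sequences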 (follow-up of hits)
System: human THP-1 B5 monocytic leukaemia cells carrying a TNF promoter luciferase reporter, made macrophage-like with PMA
Knock-down reagent: single siRNA against human genes, 50 nM
Time to read-out: about 68 h of knock-down, then 4 h LPS
Treatment: LPS (Salmonella minnesota, TLR-grade) at 10 ng/ml for 4 h; PMA 5 ng/ml present during knock-down
Measurement: 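Firefly to renilla luciferase ratio of a TNF promoter reporter after 4 h LPS, scaled to plate median, turned into robust z-score, averaged over replicates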
Scale: TNF reporter z-score: higher = stronger LPS-induced TNF reporter signal; z-score, median over gene's siRNAs: higher = stronger TNF reporter signal across the gene's siRNAs
Active means: 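Two-sided call: reduced or raised TNF reporter signal counts as active once mean z reaches about -1 or below, or about 1.5 or above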
Calls: active = changed TNF reporter (either direction); inactive = little change

MED21 #1
- TNF reporter z-score, replicate mean: -1.01 (active)
- z-score, median over gene's siRNAs: -0.475

MED21 #2
- TNF reporter z-score, replicate mean: -0.11
- z-score, median over gene's siRNAs: -0.475

MED21 #3
- TNF reporter z-score, replicate mean: -0.36
- z-score, median over gene's siRNAs: -0.475

MED21 #4
- TNF reporter z-score, replicate mean: -0.42
- z-score, median over gene's siRNAs: -0.475

MED21 #5
- TNF reporter z-score, replicate mean: -1.18 (active)
- z-score, median over gene's siRNAs: -0.475

MED21 #6
- TNF reporter z-score, replicate mean: -0.53
- z-score, median over gene's siRNAs: -0.475

VGLL3 #1
- TNF reporter z-score, replicate mean: -0.34
- z-score, median over gene's siRNAs: -0.39

VGLL3 #2
- TNF reporter z-score, replicate mean: -0.44
- z-score, median over gene's siRNAs: -0.39

VGLL3 #3
- TNF reporter z-score, replicate mean: -0.32
- z-score, median over gene's siRNAs: -0.39

VGLL3 #4
- TNF reporter z-score, replicate mean: -0.87
- z-score, median over gene's siRNAs: -0.39

VGLL3 #5
- TNF reporter z-score, replicate mean: -0.69
- z-score, median over gene's siRNAs: -0.39

VGLL3 #6
- TNF reporter z-score, replicate mean: 0.62
- z-score, median over gene's siRNAs: -0.39

MERTK #1
- TNF reporter z-score, replicate mean: 0.07
- z-score, median over gene's siRNAs: 0.28

MERTK #2
- TNF reporter z-score, replicate mean: -0.05
- z-score, median over gene's siRNAs: 0.28

MERTK #3
- TNF reporter z-score, replicate mean: 1.53 (active)
- z-score, median over gene's siRNAs: 0.28

MERTK #4
- TNF reporter z-score, replicate mean: -0.38
- z-score, median over gene's siRNAs: 0.28

MERTK #5
- TNF reporter z-score, replicate mean: 0.49
- z-score, median over gene's siRNAs: 0.28

MERTK #6
- TNF reporter z-score, replicate mean: 2.08 (active)
- z-score, median over gene's siRNAs: 0.28

BRI3BP #1
- TNF reporter z-score, replicate mean: 0.26
- z-score, median over gene's siRNAs: -0.325

BRI3BP #2
- TNF reporter z-score, replicate mean: -0.42
- z-score, median over gene's siRNAs: -0.325

BRI3BP #3
- TNF reporter z-score, replicate mean: -0.15
- z-score, median over gene's siRNAs: -0.325

BRI3BP #4
- TNF reporter z-score, replicate mean: -0.51
- z-score, median over gene's siRNAs: -0.325

BRI3BP #5
- TNF reporter z-score, replicate mean: -0.23
- z-score, median over gene's siRNAs: -0.325

BRI3BP #6
- TNF reporter z-score, replicate mean: -0.79
- z-score, median over gene's siRNAs: -0.325

PSMB3 #1
- TNF reporter z-score, replicate mean: 0.53
- z-score, median over gene's siRNAs: -0.825

PSMB3 #2
- TNF reporter z-score, replicate mean: -0.81
- z-score, median over gene's siRNAs: -0.825

PSMB3 #3
- TNF reporter z-score, replicate mean: -0.9
- z-score, median over gene's siRNAs: -0.825

PSMB3 #4
- TNF reporter z-score, replicate mean: -0.84
- z-score, median over gene's siRNAs: -0.825

PSMB3 #5
- TNF reporter z-score, replicate mean: -1.41 (active)
- z-score, median over gene's siRNAs: -0.825

PSMB3 #6
- TNF reporter z-score, replicate mean: -0.75
- z-score, median over gene's siRNAs: -0.825
